Source: US20220281997A1
No constants are given. Whether binding was seen depends on the method and setting. Some entries that bind do so weakly or less than the wild type.

Columns and labels:
[1] = molecular target: His-tag camel-derived nanobody AS718 VHH-His (camel-derived); assay: indirect ELISA, AS718 VHH-His coated, hybridoma supernatant
[2] = molecular target: AS588 VHH (camel-derived); assay: SPR, Biacore 8K; VHH-His captured on anti-His antibody chip
[3] = molecular target: AS673 VHH (camel-derived); assay: as above
[4] = molecular target: AS656 VHH (camel-derived); assay: as above
[5] = molecular target: AS325 VHH (camel-derived); assay: as above
[6] = molecular target: AS519 VHH (camel-derived); assay: as above
[7] = molecular target: AS988 VHH (camel-derived); assay: as above
[8] = molecular target: AS587 VHH (camel-derived); assay: as above
[9] = molecular target: AS588 VHH (camel-derived); assay: indirect ELISA, VHH coated
[10] = molecular target: AS673 VHH (camel-derived); assay: indirect ELISA, VHH coated
[11] = molecular target: AS656 VHH (camel-derived); assay: indirect ELISA, VHH coated
[12] = molecular target: AS325 VHH (camel-derived); assay: indirect ELISA, VHH coated
[13] = molecular target: AS519 VHH (camel-derived); assay: indirect ELISA, VHH coated
[14] = molecular target: AS988 VHH (camel-derived); assay: indirect ELISA, VHH coated
[15] = molecular target: AS587 VHH (camel-derived); assay: indirect ELISA, VHH coated

binding [1]: binds
binding [2]: binds
binding [3]: binds
binding [4]: binds
binding [5]: binds
binding [6]: binds
binding [7]: binds
binding [8]: binds
binding [9]: binds
binding [10]: binds
binding [11]: binds
binding [12]: binds
binding [13]: binds
binding [14]: binds
binding [15]: binds
B1: R166.C5 (antibody, V domains shown)
VH: QSVEESGGRLVTPGTPLTLTCTVSGFSLRNFAMSWVRQAPGKGLEWIGIIYSGGTRDYATWAKGRFTISKTSTTVDLKMTSPTTEDTATYFCARDRSPDYSAAFLLWGQGTLVTVSS
VL: IVMTQTPSSKSVPVGDTVTINCQASESVYSNNHLAWFQQKPGQPPKLLIYSASTLESGVPSRFKGSGSGTQFTLTISGVQCDDAATYYCAGYKSSDTDGTSFGGGTEVVVKG
